# The supplement of paper PMC12067093, “Discovery and optimisation of a covalent ligand for TRIM25 and its application to targeted protein ubiquitination” (Chemical Science, 2025)
# Chains of the proteins cited; added tags and fusions are not shown. Lines headed by an entry give the natural chain unless they say otherwise; changes in a name come on top.
# UniProt Q9UN81: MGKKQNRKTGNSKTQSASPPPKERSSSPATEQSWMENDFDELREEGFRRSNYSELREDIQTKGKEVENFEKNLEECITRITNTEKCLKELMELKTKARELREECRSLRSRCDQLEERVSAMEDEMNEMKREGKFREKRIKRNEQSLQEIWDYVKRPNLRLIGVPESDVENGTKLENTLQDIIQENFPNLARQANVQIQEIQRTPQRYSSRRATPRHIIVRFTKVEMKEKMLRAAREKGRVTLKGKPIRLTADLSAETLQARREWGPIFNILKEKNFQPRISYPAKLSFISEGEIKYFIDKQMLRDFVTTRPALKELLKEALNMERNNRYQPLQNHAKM
# UniProt Q53HC5: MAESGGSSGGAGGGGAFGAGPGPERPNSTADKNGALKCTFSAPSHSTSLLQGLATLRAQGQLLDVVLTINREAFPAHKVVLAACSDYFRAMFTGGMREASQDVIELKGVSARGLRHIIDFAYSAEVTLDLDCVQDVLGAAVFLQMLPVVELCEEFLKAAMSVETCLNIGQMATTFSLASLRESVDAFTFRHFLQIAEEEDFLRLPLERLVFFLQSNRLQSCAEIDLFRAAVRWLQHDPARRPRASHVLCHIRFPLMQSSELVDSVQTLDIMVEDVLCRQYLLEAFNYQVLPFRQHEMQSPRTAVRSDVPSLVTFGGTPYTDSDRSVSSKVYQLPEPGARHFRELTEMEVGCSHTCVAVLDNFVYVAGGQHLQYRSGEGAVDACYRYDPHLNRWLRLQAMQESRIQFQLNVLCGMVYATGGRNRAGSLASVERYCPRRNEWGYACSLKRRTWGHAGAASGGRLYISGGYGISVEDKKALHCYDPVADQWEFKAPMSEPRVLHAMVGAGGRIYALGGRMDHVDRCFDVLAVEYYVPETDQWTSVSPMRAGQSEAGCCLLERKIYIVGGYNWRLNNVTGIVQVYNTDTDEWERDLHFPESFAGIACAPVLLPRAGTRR
# UniProt Q8IXQ5, whole entry, looked up: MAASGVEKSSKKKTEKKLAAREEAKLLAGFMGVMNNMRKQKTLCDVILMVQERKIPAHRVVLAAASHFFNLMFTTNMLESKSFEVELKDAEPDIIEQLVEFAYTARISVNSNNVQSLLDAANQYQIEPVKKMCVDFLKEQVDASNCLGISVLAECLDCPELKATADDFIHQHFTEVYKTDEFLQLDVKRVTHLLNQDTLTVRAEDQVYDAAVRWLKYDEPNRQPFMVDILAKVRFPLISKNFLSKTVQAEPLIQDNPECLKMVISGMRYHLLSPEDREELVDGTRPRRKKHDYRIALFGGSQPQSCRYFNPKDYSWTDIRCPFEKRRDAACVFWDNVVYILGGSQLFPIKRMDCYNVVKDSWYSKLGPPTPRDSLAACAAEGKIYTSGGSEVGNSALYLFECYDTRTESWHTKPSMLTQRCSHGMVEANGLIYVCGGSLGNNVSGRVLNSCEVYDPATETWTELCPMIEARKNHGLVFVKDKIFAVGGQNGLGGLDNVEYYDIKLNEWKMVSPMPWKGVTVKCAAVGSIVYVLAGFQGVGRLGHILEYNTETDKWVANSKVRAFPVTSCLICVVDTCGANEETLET
# UniProt Q96EK9: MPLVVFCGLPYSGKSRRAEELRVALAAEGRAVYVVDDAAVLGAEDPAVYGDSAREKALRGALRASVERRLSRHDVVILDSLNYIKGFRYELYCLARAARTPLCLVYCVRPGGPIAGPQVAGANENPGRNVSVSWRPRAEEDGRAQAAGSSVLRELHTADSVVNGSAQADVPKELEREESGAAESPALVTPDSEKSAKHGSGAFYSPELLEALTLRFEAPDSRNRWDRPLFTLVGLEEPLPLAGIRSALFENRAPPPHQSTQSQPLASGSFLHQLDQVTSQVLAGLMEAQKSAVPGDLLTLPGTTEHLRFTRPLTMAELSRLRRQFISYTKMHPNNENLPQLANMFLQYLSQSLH
# UniProt O00629, whole entry, looked up: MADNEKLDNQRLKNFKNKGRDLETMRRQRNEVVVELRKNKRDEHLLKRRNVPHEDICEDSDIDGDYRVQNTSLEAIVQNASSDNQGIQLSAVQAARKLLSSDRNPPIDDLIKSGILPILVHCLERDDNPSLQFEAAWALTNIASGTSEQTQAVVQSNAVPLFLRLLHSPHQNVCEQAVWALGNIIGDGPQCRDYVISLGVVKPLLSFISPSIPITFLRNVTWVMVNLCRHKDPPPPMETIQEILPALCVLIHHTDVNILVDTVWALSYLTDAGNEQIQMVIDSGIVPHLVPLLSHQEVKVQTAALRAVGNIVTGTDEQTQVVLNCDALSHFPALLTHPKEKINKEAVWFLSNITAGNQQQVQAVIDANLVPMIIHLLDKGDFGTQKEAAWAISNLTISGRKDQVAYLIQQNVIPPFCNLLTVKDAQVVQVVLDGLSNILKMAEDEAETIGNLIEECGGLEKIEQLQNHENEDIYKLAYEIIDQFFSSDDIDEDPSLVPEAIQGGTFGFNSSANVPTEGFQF
# UniProt Q99661: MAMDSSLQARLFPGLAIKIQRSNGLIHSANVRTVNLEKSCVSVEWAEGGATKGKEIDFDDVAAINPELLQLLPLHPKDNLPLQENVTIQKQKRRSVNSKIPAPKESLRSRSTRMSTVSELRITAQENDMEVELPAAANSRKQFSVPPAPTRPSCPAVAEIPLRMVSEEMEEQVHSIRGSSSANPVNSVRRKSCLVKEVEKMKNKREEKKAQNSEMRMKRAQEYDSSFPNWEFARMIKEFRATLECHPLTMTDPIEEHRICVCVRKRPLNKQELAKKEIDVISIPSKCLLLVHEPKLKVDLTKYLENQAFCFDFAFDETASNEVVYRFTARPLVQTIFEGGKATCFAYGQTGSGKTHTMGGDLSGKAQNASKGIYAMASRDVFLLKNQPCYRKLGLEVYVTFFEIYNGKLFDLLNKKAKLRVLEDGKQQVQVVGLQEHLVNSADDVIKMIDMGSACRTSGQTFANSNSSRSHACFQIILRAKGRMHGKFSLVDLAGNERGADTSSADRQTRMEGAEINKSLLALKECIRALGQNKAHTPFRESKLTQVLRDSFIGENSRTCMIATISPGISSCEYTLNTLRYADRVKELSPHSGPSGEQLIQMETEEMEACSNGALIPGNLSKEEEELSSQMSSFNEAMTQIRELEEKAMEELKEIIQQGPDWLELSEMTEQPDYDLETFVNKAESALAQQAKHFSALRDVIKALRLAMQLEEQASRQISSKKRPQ
# UniProt P13796: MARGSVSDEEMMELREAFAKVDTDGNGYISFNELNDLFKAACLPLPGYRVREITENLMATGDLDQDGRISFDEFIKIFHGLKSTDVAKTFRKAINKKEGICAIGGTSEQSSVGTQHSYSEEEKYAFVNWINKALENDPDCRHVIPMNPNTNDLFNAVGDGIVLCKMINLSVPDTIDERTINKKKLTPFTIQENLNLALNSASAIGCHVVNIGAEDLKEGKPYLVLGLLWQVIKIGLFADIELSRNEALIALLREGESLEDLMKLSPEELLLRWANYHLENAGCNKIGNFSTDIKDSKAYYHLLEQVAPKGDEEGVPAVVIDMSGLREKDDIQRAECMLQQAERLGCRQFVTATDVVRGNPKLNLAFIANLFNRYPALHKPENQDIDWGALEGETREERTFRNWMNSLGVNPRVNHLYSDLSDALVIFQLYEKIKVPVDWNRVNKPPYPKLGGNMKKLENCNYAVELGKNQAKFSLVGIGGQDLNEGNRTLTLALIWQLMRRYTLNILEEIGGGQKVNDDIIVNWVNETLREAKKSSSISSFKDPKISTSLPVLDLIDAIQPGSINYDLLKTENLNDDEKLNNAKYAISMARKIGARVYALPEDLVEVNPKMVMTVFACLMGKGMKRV
# UniProt Q14847: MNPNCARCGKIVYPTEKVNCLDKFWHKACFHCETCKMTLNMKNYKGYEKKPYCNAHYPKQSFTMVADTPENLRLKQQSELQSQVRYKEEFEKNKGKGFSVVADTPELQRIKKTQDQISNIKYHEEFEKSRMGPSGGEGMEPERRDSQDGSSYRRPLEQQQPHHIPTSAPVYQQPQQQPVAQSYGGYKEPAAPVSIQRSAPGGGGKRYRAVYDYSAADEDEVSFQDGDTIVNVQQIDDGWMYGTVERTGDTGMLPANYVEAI
# UniProt Q96JN0: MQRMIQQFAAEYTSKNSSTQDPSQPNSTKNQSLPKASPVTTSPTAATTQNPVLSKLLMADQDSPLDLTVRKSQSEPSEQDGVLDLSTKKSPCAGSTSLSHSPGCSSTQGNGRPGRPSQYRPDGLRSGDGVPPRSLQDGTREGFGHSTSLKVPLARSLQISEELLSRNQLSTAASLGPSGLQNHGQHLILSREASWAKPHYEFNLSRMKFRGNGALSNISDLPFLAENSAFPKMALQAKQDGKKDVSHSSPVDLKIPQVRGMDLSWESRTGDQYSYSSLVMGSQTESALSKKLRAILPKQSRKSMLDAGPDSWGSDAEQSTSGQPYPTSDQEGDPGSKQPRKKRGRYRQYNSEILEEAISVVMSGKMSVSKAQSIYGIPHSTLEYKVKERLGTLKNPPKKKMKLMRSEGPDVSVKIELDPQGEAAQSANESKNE
# UniProt Q969R5, whole entry, looked up: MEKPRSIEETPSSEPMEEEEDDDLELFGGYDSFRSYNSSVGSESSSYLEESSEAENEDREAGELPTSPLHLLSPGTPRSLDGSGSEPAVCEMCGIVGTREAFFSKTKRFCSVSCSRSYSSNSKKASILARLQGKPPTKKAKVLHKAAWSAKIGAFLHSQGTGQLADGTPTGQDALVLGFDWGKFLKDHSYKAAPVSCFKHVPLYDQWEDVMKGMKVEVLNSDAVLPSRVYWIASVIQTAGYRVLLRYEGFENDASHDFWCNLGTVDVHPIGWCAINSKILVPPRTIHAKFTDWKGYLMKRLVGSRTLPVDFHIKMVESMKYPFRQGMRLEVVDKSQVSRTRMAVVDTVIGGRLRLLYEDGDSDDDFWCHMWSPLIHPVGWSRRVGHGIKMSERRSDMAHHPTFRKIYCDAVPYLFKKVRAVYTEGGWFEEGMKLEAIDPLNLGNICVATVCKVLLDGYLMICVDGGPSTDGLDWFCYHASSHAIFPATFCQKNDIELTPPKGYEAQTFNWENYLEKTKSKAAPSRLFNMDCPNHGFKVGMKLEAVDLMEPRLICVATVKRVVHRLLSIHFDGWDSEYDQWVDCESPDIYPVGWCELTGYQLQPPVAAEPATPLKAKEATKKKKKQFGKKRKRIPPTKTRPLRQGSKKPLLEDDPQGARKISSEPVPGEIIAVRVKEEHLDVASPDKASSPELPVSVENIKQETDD
# UniProt Q14974, whole entry, looked up: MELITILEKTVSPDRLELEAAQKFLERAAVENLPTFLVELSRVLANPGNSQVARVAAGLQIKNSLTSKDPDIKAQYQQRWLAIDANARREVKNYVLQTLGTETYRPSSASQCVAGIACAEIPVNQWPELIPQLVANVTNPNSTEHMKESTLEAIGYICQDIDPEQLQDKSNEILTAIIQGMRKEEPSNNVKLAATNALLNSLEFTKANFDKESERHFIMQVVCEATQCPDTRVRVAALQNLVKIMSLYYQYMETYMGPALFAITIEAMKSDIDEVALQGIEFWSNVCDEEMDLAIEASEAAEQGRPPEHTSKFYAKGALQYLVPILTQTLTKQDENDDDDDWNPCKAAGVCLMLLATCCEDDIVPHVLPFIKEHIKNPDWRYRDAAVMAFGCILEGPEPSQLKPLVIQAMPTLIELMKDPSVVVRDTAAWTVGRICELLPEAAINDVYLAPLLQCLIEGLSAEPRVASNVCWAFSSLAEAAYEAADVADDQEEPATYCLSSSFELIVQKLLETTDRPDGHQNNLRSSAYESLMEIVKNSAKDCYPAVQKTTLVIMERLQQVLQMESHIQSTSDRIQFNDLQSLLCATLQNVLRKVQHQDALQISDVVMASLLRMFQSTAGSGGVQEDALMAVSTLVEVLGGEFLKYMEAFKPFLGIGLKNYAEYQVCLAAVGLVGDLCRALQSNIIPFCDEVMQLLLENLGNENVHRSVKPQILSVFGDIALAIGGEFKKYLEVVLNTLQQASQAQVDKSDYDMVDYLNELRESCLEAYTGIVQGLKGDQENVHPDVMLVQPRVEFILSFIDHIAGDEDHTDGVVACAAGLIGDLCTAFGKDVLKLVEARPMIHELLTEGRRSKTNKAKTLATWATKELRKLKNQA
# The list shows a part of the results.
# Compound: CC1Cc2ccccc2N1C(=O)C1CCCN(C1)C(=O)CCl (mixture of isomers) [TRIM25 ligand 11 (diastereomer mixture)]
# Assay: probe-labelled cysteine peptide fold change vs DMSO (competition) (log2 fold change); higher = less target engagement (more negative = stronger competition)
# Conditions: THP-1, incubation time: 4 h
# 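Further: competitive chemoproteomic profiling in live THP-1 cells with an iodoacetamide desthiobiotin (IA-DTB) probe, comparing probe-labelled peptide intensities in compound-treated cells against DMSO-treated controls.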
target,measurement,setting,value
L1RE1_Q9UN81_111_CDQLEER (UniProt Q9UN81),probe-labelled cysteine peptide fold change,10 µM,-0.4
same,probe-labelled cysteine peptide fold change,50 µM,0.0961
KLHL26_Q53HC5_603_DLHFPESFAGIACAPVLLPR (UniProt Q53HC5),probe-labelled cysteine peptide fold change,10 µM,0.481
same,probe-labelled cysteine peptide fold change,50 µM,-0.228
KMT2C_Q8NEZ4_4403_CCFCHEEGDGLTDGPAR (UniProt Q8NEZ4),probe-labelled cysteine peptide fold change,10 µM,0.0194
same,probe-labelled cysteine peptide fold change,50 µM,0.0926
KLHL7_Q8IXQ5_44_TLCDVILMVQER (UniProt Q8IXQ5),probe-labelled cysteine peptide fold change,10 µM,0.0233
same,probe-labelled cysteine peptide fold change,50 µM,0.341
KTI12_Q96EK9_7_PLVVFCGLPYSGK (UniProt Q96EK9),probe-labelled cysteine peptide fold change,10 µM,-0.201
same,probe-labelled cysteine peptide fold change,50 µM,0.109
KPNA4_O00629_122_SGILPILVHCLER (UniProt O00629),probe-labelled cysteine peptide fold change,10 µM,0.124
same,probe-labelled cysteine peptide fold change,50 µM,0.197
KIF2C_Q99661_40_SCVSVEWAEGGATK (UniProt Q99661),probe-labelled cysteine peptide fold change,10 µM,0.0221
same,probe-labelled cysteine peptide fold change,50 µM,0.00403
KLHDC4_Q8TBB5_58_TQTVELPCPPPSPR (UniProt Q8TBB5),probe-labelled cysteine peptide fold change,10 µM,0.0743
same,probe-labelled cysteine peptide fold change,50 µM,-0.0886
KPNA4_O00629_417_KDQVAYLIQQNVIPPFCNLLTVK (UniProt O00629),probe-labelled cysteine peptide fold change,10 µM,0.0986
same,probe-labelled cysteine peptide fold change,50 µM,-0.0199
KLHL6_Q8WZ60_539_ALYAYSPLEDSWCLVTQLSHER (UniProt Q8WZ60),probe-labelled cysteine peptide fold change,10 µM,0.286
same,probe-labelled cysteine peptide fold change,50 µM,0.325
KLC1_Q07866-4_621_NNCLADSR (UniProt Q07866),probe-labelled cysteine peptide fold change,10 µM,-0.13
same,probe-labelled cysteine peptide fold change,50 µM,-0.168
LAMC1_P11047_447_CQPGFHSLTEAGCRPCSCDPSGSIDECNIETGR (UniProt P11047),probe-labelled cysteine peptide fold change,10 µM,0.153
same,probe-labelled cysteine peptide fold change,50 µM,-0.0719
KPNA6_O60684_467_SGSGVNPYCGLIEEAYGLDK (UniProt O60684),probe-labelled cysteine peptide fold change,10 µM,0.104
same,probe-labelled cysteine peptide fold change,50 µM,0.08
KLHL8_Q9P2G9_590_IFAVGGHNGNAYLNTVEAFDPVLNRWELVGSVSHCR (UniProt Q9P2G9),probe-labelled cysteine peptide fold change,10 µM,0.358
same,probe-labelled cysteine peptide fold change,50 µM,0.161
KIF2C_Q99661_154_QFSVPPAPTRPSCPAVAEIPLR (UniProt Q99661),probe-labelled cysteine peptide fold change,10 µM,-0.0599
same,probe-labelled cysteine peptide fold change,50 µM,-0.166
LCP1_P13796_42_AACLPLPGYR (UniProt P13796),probe-labelled cysteine peptide fold change,10 µM,-0.0884
same,probe-labelled cysteine peptide fold change,50 µM,-0.216
KIF2C_Q99661_560+572_TCMIATISPGISSCEYTLNTLR (UniProt Q99661),probe-labelled cysteine peptide fold change,10 µM,-0.453
same,probe-labelled cysteine peptide fold change,50 µM,-0.089
LASP1_Q14847_5_MNPNCAR (UniProt Q14847),probe-labelled cysteine peptide fold change,10 µM,0.0856
same,probe-labelled cysteine peptide fold change,50 µM,0.409
LCP1_P13796_618_MVMTVFACLMGK (UniProt P13796),probe-labelled cysteine peptide fold change,10 µM,-0.236
same,probe-labelled cysteine peptide fold change,50 µM,-0.0702
LCOR_Q96JN0-3_1334_MECPDALAVESKPSR (UniProt Q96JN0),probe-labelled cysteine peptide fold change,10 µM,-0.101
same,probe-labelled cysteine peptide fold change,50 µM,-0.331
L3MBTL2_Q969R5_554_LICVATVK (UniProt Q969R5),probe-labelled cysteine peptide fold change,10 µM,0.51
same,probe-labelled cysteine peptide fold change,50 µM,0.04
KPNB1_Q14974_392_DAAVMAFGCILEGPEPSQLK (UniProt Q14974),probe-labelled cysteine peptide fold change,10 µM,0.124
same,probe-labelled cysteine peptide fold change,50 µM,0.208
LACTB2_Q53H82_58_RILIDTGEPAIPEYISCLK (UniProt Q53H82),probe-labelled cysteine peptide fold change,10 µM,-0.0382
same,probe-labelled cysteine peptide fold change,50 µM,-0.079

# Copied from the results shown for reference:
target,measurement,setting,value
KPNA6_O60684_467_SGSGVNPYCGLIEEAYGLDK (UniProt O60684),probe-labelled cysteine peptide fold change,10 µM,0.104
same,probe-labelled cysteine peptide fold change,50 µM,0.08
KLHL8_Q9P2G9_590_IFAVGGHNGNAYLNTVEAFDPVLNRWELVGSVSHCR (UniProt Q9P2G9),probe-labelled cysteine peptide fold change,10 µM,0.358
